Binding data for 1 molecule are collected here from publication PMC9381590.

By UniProt entry, the sequences of proteins in these tests, tags left out.
UniProt Q13838: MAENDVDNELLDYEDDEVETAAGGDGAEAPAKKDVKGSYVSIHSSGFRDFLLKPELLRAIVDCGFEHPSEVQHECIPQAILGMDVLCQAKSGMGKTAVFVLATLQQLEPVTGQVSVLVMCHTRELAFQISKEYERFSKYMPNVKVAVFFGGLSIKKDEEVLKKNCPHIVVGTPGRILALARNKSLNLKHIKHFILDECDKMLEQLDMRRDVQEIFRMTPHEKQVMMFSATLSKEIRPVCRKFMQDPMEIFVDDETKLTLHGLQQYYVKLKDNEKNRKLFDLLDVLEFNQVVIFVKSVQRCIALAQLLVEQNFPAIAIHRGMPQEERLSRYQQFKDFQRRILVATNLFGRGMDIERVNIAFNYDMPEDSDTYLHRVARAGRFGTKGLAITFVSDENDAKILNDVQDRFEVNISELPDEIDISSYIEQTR

The target in the test is endogenous DDX39B (human (endogenous in CRC cells)) (UniProt Q13838). Nature of the test: co-IP; endogenous proteins immunoprecipitated from CRC cell lysates; for some pairs cells stably expressing mock or DDX39B, or treated with 150 ng/ml EGF.

Results are given in words; binding and its absence hold for the method and conditions named. In cells and extracts the contact can be indirect. Some entries that bind do so weakly or less than the wild type.

B1: PFKP (protein, UniProt Q01813 1-784)
chain: MDADDSRAPKGSLRKFLEHLSGAGKAIGVLTSGGDAQGMNAAVRAVVRMGIYVGAKVYFIYEGYQGMVDGGSNIAEADWESVSSILQVGGTIIGSARCQAFRTREGRLKAACNLLQRGITNLCVIGGDGSLTGANLFRKEWSGLLEELARNGQIDKEAVQKYAYLNVVGMVGSIDNDFCGTDMTIGTDSALHRIIEVVDAIMTTAQSHQRTFVLEVMGRHCGYLALVSALACGADWVFLPESPPEEGWEEQMCVKLSENRARKKRLNIIIVAEGAIDTQNKPITSEKIKELVVTQLGYDTRVTILGHVQRGGTPSAFDRILASRMGVEAVIALLEATPDTPACVVSLNGNHAVRLPLMECVQMTQDVQKAMDERRFQDAVRLRGRSFAGNLNTYKRLAIKLPDDQIPKTNCNVAVINVGAPAAGMNAAVRSAVRVGIADGHRMLAIYDGFDGFAKGQIKEIGWTDVGGWTGQGGSILGTKRVLPGKYLEEIATQMRTHSINALLIIGGFEAYLGLLELSAAREKHEEFCVPMVMVPATVSNNVPGSDFSIGADTALNTITDTCDRIKQSASGTKRRVFIIETMGGYCGYLANMGGLAAGADAAYIFEEPFDIRDLQSNVEHLTEKMKTTIQRGLVLRNESCSENYTTDFIYQLYSEEGKGVFDCRKNVLGHMQQGGAPSPFDRNFGTKISARAMEWITAKLKEARGRGKKFTTDDSICVLGISKRNVIFQPVAELKKQTDFEHRIPKEQWWLKLRPLMKILAKYKASYDVSDSGQLEHVQPWSV
With B1, the binding entry was “binds”.
